± gives the standard error. Many of these values have a large error.
B1: glmS ribozyme (parent)
chain: AUAAAAGCGCCAGAACUACAGAAAUGUAGUUGACGAGGAGGAGGUUUAUCGAAUUUUCGGCGGAUGCCUCCAAA

Variants of: B1
Assay: self-cleavage kobs at 40 uM GlcN6P; higher = faster cleavage; RNA array
Conditions: with glucosamine-6-phosphate
Outline: (§1)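 Glucosamine-6-phosphate, from 40 μM to 10 mM in HEPES/KCl/Mg(OAc)2 buffer, was flowed over sequenced MiSeq chips carrying barcoded ribozyme variants transcribed in situ by E. coli RNA polymerase. A hybridised Cy3 probe tracked the variants at 37 °C as tiles were imaged over ~14 h. kobs, kcat and KM were obtained by fitting normalised per-tile medians to exponential decays and then applying weighted Michaelis–Menten fits across concentrations.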

Variant	self-cleavage kobs at 40 uM GlcN6P [s⁻¹]
G37A C71A	1.89e-05 ± 1.5e-05
A36U C50G U57C	3.97e-05 ± 2.6e-05
U57G C58G U65A C68A	3.24e-05 ± 1.8e-05
C50G U65C	2.9e-05 ± 1.9e-05
U54A U69G	2.49e-05 ± 1.6e-05
C58G C67G	1.82e-05 ± 1.1e-05
A53G C58A	1.11e-05 ± 1.1e-05
U54G G60C U69A	4.4e-05 ± 2.3e-05
A52G A53G	1.39e-05 ± 1.2e-05
U49A G66U C68G	2.79e-05 ± 2.5e-05
U56A C68G	2.48e-05 ± 1.4e-05
G32U U55G	2.75e-05 ± 2.4e-05
G37A U55C	2.07e-05 ± 1.3e-05
A36U C58G C70U	4.08e-05 ± 2.9e-05
G35A U57G C68G	4.08e-05 ± 2.4e-05
U55C G66C	1.94e-05 ± 1.1e-05
U47A U69G	1.94e-05 ± 1.8e-05
G37A G40A	3.4e-05 ± 1.9e-05
C50U A53G C71G	3.36e-05 ± 2.4e-05
A64G C71A	1.64e-05 ± 1.5e-05

Taken from above (3 entries):
Variant	self-cleavage kobs at 40 uM GlcN6P [s⁻¹]
U47A U69G	1.94e-05 ± 1.8e-05
G37A G40A	3.4e-05 ± 1.9e-05
C50U A53G C71G	3.36e-05 ± 2.4e-05

Variants of: B1
Assay: self-cleavage kobs at 640 uM GlcN6P; higher = faster cleavage; RNA array
Conditions: with glucosamine-6-phosphate
Outline: as §1

Variant	self-cleavage kobs at 640 uM GlcN6P [s⁻¹]
C10U U31C U56A C68G	3.06e-05 ± 2.9e-05
A6U G13A G59U C61G C68U	3.8e-05 ± 3.2e-05
G7U C50G	2.74e-05 ± 1.6e-05
G7U A14U C16G U49C C68G	5.27e-05 ± 2.7e-05
G7U U47G C50U	3.97e-05 ± 3e-05
A6U A15C	1.95e-05 ± 1e-05
C10A U30A C68U	6.78e-05 ± 4e-05
C8G U47G C50A U65G C70G	3.07e-05 ± 3.1e-05
C10A A15G G38U G63U U69G	4.3e-05 ± 2.6e-05
C10A A48G C50U C70G	3.78e-05 ± 2.4e-05
C10U G29U C67U C68U	0.000116 ± 8.5e-05
C10G G29U G32U C71G	5.4e-05 ± 4.3e-05
A6U A39G	2.3e-05 ± 1.5e-05
A6C G7U A14U G37U U69C	4.28e-05 ± 3.9e-05
C10A C61A	2.95e-05 ± 1.8e-05
C11A A14U C71U	3.06e-05 ± 1.9e-05
G7A U30C C61A C67U	4.7e-05 ± 4.2e-05
G7A G29C C34U G37U C67U C71A	0.00155 ± 0.00086

Variants of: B1
Assay: self-cleavage kobs at 2500 uM GlcN6P; higher = faster cleavage; RNA array
Conditions: with glucosamine-6-phosphate
Outline: as §1

Variant	self-cleavage kobs at 2500 uM GlcN6P [s⁻¹]
C10U U31C U56A C68G	2.67e-05 ± 1.9e-05
A6U G13A G59U C61G C68U	4.95e-05 ± 2.7e-05
C10A U30A C68U	6.4e-05 ± 3.6e-05
C10A A48G C50U C70G	3.87e-05 ± 2.9e-05
C10U G29U C67U C68U	2.61e-05 ± 2.2e-05

Variants of: B1
Assay: self-cleavage kobs at 10000 uM GlcN6P; higher = faster cleavage; RNA array
Conditions: with glucosamine-6-phosphate
Outline: as §1

Variant	self-cleavage kobs at 10000 uM GlcN6P [s⁻¹]
U57G C58G U65A C68A	2.23e-05 ± 1.9e-05
G7U C50G	0.000474 ± 0.00032
C50G U65C	2.66e-05 ± 1.5e-05
U54G G60C U69A	2.85e-05 ± 1.6e-05
U49A G66U C68G	2.32e-05 ± 1.9e-05

Variants of: B1
Assay: self-cleavage kobs at 160 uM GlcN6P; higher = faster cleavage; RNA array
Conditions: with glucosamine-6-phosphate
Outline: as §1

Variant	self-cleavage kobs at 160 uM GlcN6P [s⁻¹]
U47A U69G	5.61e-05 ± 2.9e-05

Reference: the supplement of paper PMC7125110
